Results as given in article PMC4600732.
These are yes or no findings as the source states them, for the method shown. Binding seen in cells or lysates may run through a third protein.

By UniProt entry, the sequences of proteins in these tests, tags left out.
UniProt O95819: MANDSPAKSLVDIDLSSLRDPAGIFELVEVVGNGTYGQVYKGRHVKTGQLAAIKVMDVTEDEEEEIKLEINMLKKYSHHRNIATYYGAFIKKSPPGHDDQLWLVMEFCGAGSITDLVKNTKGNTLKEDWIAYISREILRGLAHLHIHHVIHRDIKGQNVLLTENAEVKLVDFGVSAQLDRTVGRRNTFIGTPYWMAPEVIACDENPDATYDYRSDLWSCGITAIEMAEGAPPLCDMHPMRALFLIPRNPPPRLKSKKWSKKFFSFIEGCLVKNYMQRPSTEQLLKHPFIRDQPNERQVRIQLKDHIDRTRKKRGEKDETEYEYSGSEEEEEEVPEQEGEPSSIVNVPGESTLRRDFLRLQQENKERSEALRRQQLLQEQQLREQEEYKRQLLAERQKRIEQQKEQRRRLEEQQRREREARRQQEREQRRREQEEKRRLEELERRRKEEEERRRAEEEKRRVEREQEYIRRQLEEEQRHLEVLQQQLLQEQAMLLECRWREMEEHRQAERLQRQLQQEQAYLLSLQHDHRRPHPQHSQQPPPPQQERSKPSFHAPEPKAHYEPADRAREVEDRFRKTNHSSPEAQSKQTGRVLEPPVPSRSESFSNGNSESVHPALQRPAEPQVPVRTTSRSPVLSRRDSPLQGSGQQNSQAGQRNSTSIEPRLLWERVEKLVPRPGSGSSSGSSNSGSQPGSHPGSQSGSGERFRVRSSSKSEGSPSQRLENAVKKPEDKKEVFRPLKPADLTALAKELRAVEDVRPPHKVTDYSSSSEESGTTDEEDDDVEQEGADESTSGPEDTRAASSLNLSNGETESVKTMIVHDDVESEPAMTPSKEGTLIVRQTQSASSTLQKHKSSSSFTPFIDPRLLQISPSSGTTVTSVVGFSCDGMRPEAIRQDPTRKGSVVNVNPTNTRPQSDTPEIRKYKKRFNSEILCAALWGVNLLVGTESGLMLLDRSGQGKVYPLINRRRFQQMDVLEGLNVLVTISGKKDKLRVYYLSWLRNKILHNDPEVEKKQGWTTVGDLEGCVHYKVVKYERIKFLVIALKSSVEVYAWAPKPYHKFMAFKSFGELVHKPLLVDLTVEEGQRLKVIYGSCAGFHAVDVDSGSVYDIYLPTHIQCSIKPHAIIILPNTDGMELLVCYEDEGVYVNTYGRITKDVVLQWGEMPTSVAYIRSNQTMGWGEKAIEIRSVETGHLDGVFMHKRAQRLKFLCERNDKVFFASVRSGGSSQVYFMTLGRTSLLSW

Target: MAP4K4, endogenous (human (endogenous in HEK293A)) (UniProt O95819)
Assay: co-IP; MST1 and MAP4K4 antibodies used for co-immunoprecipitation with HEK293A cell lysates (endogenous proteins)

binding: no binding
B1: SAV1 (Sav family WW domain-containing protein 1), endogenous (protein, UniProt Q9H4B6 1-383)
chain: MLSRKKTKNEVSKPAEVQGKYVKKETSPLLRNLMPSFIRHGPTIPRRTDICLPDSSPNAFSTSGDVVSRNQSFLRTPIQRTPHEIMRRESNRLSAPSYLARSLADVPREYGSSQSFVTEVSFAVENGDSGSRYYYSDNFFDGQRKRPLGDRAHEDYRYYEYNHDLFQRMPQNQGRHASGIGRVAATSLGNLTNHGSEDLPLPPGWSVDWTMRGRKYYIDHNTNTTHWSHPLEREGLPPGWERVESSEFGTYYVDHTNKKAQYRHPCAPSVPRYDQPPPVTYQPQQTERNQSLLVPANPYHTAEIPDWLQVYARAPVKYDHILKWELFQLADLDTYQGMLKLLFMKELEQIVKMYEAYRQALLTELENRKQRQQWYAQQHGKNF
